Experimental data reported in US9932584B2, “Interfering RNA delivery system and uses thereof” (Arrowhead Pharmaceuticals Inc., priority 2012, dated 2018).
Not every detail of the peptide structures is certain; ends, links or a residue may be inferred. Peptide text beside a SMILES is read from it.

Columns and labels:
PPIB mRNA = experiment: siRNA delivery with CPP-10H peptides, PPIB mRNA by Taqman qRT-PCR; type: cell-based; conditions: GTM-3 cells; for suppression of PPIB mRNA expression: PPIB siRNA complexed with peptide 20:1 peptide:siRNA, 1 hour, 48 hour post-transfection, normalized to β-actin mRNA, relative to non-treated cells
Method: The ability of 10 histidine residues (10H) to enhance endosomal release of siRNAs delivered using certain cell penetrating peptides (CPPs) was examined. […] (SEQ ID NO: 12). Peptidyl-prolyl cis-trans isomerase B (PPIB) siRNA and Non-Targeting siRNA #2 (NTC2) (Thermo Fisher Scientific, Dharmacon Products, Lafayette, Colo.) were complexed with TAT-10H, CTP-10H, and YM3-10H peptides (Abgent, Inc., San Diego, Calif.) at a 20:1 peptide: siRNA molar ratio for 30 minutes at room temperature, and applied to GTM-3 cells (Pang, I. H., et al., 1994 Curr Eye Res. 13:51-63) at a final siRNA concentration of 100-800 nM for 1 hour. PPIB mRNA and β-actin mRNA levels were determined by Taqman qRT-PCR assay (Applied Biosystems, Austin, Tex.) at 48 hour post-transfection (FIG. 1). Data were normalized to β-actin mRNA, and expressed relative to PPIB mRNA level in non-treated cells.

ROCK1 = experiment: YM3-10H-mediated siRNA delivery, ROCK1 protein expression by western blot; type: cell-based; conditions: NRK52E cells, western blot 72 hour post-transfection

| SMILES | non-specific silencing of PPIB mRNA expression with NTC2 control (PPIB mRNA; NTC2 non-targeting siRNA delivered with peptide, 800 nM siRNA, possibly due to a cytotoxic effect) | suppression of PPIB mRNA expression (PPIB mRNA; 100 nM siRNA) [%] | suppression of PPIB mRNA expression (PPIB mRNA; 200 nM siRNA) [%] | suppression of PPIB mRNA expression (PPIB mRNA; 800 nM siRNA) [%] | ROCK1 protein expression with NTC2 siRNA (ROCK1; NTC2 non-targeting siRNA complexed with peptide 20:1) | ROCK1 protein expression (ROCK1; ROCK1 siRNA complexed with peptide 20:1, 200-400 nM siRNA, 1 hour) | non-specific reduction in PPIB mRNA expression with NTC2 siRNA (PPIB mRNA; NTC2 non-targeting siRNA delivered with peptide, FIG. 1C) |
| --- | --- | --- | --- | --- | --- | --- | --- |
| C[C@@H](O)[C@H](NC(=O)[C@H](Cc1c[nH]cn1)NC(=O)[C@H](Cc1c[nH]cn1)NC(=O)[C@H](Cc1c[nH]cn1)NC(=O)[C@H](Cc1c[nH]cn1)NC(=O)[C@H](Cc1c[nH]cn1)NC(=O)[C@@H](N)CS)C(=O)N[C@@H](Cc1c[nH]cn1)C(=O)N[C@@H](Cc1ccc(O)cc1)C(=O)NCC(=O)N[C@@H](CCCNC(=N)N)C(=O)N[C@@H](CCCCN)C(=O)N[C@@H](CCCCN)C(=O)N[C@@H](CCCNC(=N)N)C(=O)N[C@@H](CCCNC(=N)N)C(=O)N[C@@H](CCC(N)=O)C(=O)N[C@@H](CCCNC(=N)N)C(=O)N[C@@H](CCCNC(=N)N)C(=O)N[C@@H](CCCNC(=N)N)C(=O)N[C@@H](Cc1c[nH]cn1)C(=O)N[C@@H](Cc1c[nH]cn1)C(=O)N[C@@H](Cc1c[nH]cn1)C(=O)N[C@@H](Cc1c[nH]cn1)C(=O)N[C@@H](Cc1c[nH]cn1)C(=O)N[C@@H](CS)C(=O)O [TAT-10H] (H-CHHHHHTHYGRKKRRQRRRHHHHHC-OH) | significant silencing | ~80 | ≥ 90 | ≥ 90 |  |  |  |
| CC(C)C[C@H](NC(=O)[C@H](CCCNC(=N)N)NC(=O)[C@H](Cc1c[nH]cn1)NC(=O)[C@@H](NC(=O)[C@H](Cc1c[nH]cn1)NC(=O)[C@H](Cc1c[nH]cn1)NC(=O)[C@H](Cc1c[nH]cn1)NC(=O)[C@H](Cc1c[nH]cn1)NC(=O)[C@H](Cc1c[nH]cn1)NC(=O)[C@@H](N)CS)[C@@H](C)O)C(=O)N1CCC[C@H]1C(=O)N[C@@H](CCCNC(=N)N)C(=O)N[C@@H](CCCNC(=N)N)C(=O)N[C@@H](CCCNC(=N)N)C(=O)N[C@@H](CCCNC(=N)N)C(=O)N[C@@H](CCCNC(=N)N)C(=O)N[C@@H](CCCNC(=N)N)C(=O)N[C@@H](Cc1c[nH]cn1)C(=O)N[C@@H](Cc1c[nH]cn1)C(=O)N[C@@H](Cc1c[nH]cn1)C(=O)N[C@@H](Cc1c[nH]cn1)C(=O)N[C@@H](Cc1c[nH]cn1)C(=O)N[C@@H](CS)C(=O)O [YM3-10H] (H-CHHHHHTHRLPRRRRRRHHHHHC-OH) |  | ~80 | ≥ 90 | ≥ 90 | no effect | significant reduction | not observed |
